These are yes or no findings as the source states them, for the method shown.
Molecular target: FUS (FUSed in sarcoma), recombinant with N-terminal 6xHis and maltose binding protein (MBP) (UniProt P35637)
Assay: co-IP; recombinant FUS (1.3 ug) immobilised with anti-FUS (4H11) antibody on Protein A/G agarose beads in PBS pH 7.4 with 0.1 mg/ml BSA; beads incubated with T7 Pol 1 h at room temperature, washed in high salt and TBS with 0.1% NP-40 substitute; Western blot with anti-FUS and anti-His; with RNA present or absent, also with linear DNA template; N = 4; both purified

The chains behind the UniProt entries cited, without tags or fusion partners. Where a name states a change or a piece, a line headed by the entry shows the natural chain unless it says otherwise.
UniProt P35637: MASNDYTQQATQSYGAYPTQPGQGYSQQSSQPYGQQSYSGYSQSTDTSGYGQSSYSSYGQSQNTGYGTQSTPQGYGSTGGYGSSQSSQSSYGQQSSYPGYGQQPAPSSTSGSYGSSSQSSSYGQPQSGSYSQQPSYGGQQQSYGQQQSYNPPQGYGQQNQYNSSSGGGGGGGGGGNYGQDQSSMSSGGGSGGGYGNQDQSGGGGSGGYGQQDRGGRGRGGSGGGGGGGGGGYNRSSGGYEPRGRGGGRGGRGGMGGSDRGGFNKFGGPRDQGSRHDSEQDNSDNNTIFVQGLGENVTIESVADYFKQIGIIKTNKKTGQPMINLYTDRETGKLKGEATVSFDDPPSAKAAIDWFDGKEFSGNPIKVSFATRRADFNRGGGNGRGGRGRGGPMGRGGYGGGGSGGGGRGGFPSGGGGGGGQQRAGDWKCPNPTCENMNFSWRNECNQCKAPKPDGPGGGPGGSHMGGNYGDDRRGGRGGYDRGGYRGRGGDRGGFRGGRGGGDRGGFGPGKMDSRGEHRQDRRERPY
UniProt P00573: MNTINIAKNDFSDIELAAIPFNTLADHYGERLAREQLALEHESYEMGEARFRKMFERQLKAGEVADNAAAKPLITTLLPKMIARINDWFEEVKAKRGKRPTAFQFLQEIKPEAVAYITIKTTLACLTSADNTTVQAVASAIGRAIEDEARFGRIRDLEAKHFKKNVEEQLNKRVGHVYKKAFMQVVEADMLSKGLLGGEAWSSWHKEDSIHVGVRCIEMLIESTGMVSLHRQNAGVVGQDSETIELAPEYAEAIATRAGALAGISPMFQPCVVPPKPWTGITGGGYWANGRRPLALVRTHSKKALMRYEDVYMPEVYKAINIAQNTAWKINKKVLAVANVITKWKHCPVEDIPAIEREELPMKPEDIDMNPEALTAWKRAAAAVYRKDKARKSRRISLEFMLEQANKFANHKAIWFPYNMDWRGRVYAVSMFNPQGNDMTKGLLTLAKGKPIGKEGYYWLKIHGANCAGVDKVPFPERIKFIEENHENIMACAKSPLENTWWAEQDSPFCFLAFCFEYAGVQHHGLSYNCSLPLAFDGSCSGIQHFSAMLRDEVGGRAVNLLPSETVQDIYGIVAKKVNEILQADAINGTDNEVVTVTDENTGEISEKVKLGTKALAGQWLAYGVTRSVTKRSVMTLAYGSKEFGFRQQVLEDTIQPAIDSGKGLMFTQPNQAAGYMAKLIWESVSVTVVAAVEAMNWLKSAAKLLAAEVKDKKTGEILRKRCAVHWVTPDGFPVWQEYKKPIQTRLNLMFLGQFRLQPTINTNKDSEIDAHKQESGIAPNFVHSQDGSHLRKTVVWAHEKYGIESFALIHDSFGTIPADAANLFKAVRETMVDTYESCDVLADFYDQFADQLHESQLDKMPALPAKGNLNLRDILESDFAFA

- binding: no binding
Substance: T7(P266L) polymerase fused with a 6xHis tag (from UniProt P00573 1-883) (enzyme)

Source: publication PMC10556777
